This assay has as its target full-length P. pyralis luciferase (Photinus pyralis, UniProt P08659, K549A/L550V/N119G/N50D/S548I). The format is cell-based.

Amino acid sequences for entries named in this document (tags omitted).
UniProt P08659, whole entry N50D/N119G/S548I/K549A/L550V, looked up: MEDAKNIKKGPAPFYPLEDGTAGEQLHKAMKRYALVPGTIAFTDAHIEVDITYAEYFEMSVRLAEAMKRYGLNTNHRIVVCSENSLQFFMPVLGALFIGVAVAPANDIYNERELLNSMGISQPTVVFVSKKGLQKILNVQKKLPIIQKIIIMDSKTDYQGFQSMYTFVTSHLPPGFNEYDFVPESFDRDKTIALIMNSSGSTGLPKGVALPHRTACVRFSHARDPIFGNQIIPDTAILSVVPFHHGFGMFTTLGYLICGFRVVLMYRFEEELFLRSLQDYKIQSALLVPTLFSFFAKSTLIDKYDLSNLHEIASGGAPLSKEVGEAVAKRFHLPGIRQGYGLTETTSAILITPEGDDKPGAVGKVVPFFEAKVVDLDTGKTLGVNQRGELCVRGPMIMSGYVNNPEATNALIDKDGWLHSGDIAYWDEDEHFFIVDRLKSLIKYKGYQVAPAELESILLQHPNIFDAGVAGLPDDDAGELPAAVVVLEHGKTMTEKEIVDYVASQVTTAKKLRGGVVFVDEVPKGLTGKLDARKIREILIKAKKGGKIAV

Take `O=[N+]([O-])c1ccc(-c2nc(-c3ccncc3)c(-c3ccc(F)cc3)[nH]2)cc1` [PD 169316]: the “Luciferase Assay % Lum (full-length luciferase counter-screen)” value was determined as 97.78% and the “Luciferase Assay Z-score (full-length luciferase counter-screen)” value was -0.28.

These data come from paper PMC6858373 (Scientific Reports, 2019).
